PubChem BioAssay AID1259308 | NCATS, 2017
The deposit covers about 59,000 reagents; this is a part drawn at random. Of all reagents, about 1,510 (2.6%) were called active. 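Calls use total luciferase alone and ignore viability, so some active siRNAs may act by altering cell number.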 Entries without a mark were called inactive. Further read-outs or replicates are left out here. No sequences are given here.

Purpose: 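Knock-downs that increase output of a recombinant reporter protein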 (primary screen)
Cells: human HEK293 embryonic kidney cells stably expressing firefly luciferase (HEK-CMV-Luc2-Hygro)
Reagents: single siRNA against human genes, 0.8 pmol siRNA per well
Duration: 72 h
Read-out: 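Luciferase light (ONE-Glo) measured on one replicate plate set and viability (CellTiter-Glo) on the other, scaled to a negative control siRNA, with robust z-scores and luciferase per cell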
Direction: total luciferase, z-score: higher = more reporter protein produced
Hit rule: 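An siRNA counts as active if its total luciferase robust z-score exceeds 3; genes with two or more such siRNAs out of three were retested with fresh siRNAs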
Calls: active = raised luciferase; inactive = no rise

SCFD1 [SID160735852]: total luciferase, z-score = -0.0437
SCFD1 [SID160735853]: total luciferase, z-score = 0.812
SCFD1 [SID160735854]: total luciferase, z-score = 0.255
NXF5 [SID160744715]: total luciferase, z-score = 1.15
NXF5 [SID160744716]: total luciferase, z-score = 1.72
NXF5 [SID160744717]: total luciferase, z-score = -0.636
SSMEM1 [SID160757467]: total luciferase, z-score = -0.108
SSMEM1 [SID160757468]: total luciferase, z-score = -2.56
SSMEM1 [SID160757470]: total luciferase, z-score = 0.351
SMARCA2 [SID160717027]: total luciferase, z-score = -0.174
SMARCA2 [SID160717028]: total luciferase, z-score = -0.193
SMARCA2 [SID160717029]: total luciferase, z-score = -0.764
VTN [SID160718793]: total luciferase, z-score = 0.656
VTN [SID160718795]: total luciferase, z-score = -0.845
VTN [SID160718796]: total luciferase, z-score = -0.784
AGGF1 [SID160742960]: total luciferase, z-score = -1.19
AGGF1 [SID160742962]: total luciferase, z-score = -0.151
AGGF1 [SID160742963]: total luciferase, z-score = -1.35
GAS2L3 [SID160762908]: total luciferase, z-score = 0.556
GAS2L3 [SID160762909]: total luciferase, z-score = -0.338
GAS2L3 [SID160762910]: total luciferase, z-score = -1.29

Already shown: 3 of the entries above.
SMARCA2 [SID160717029]: total luciferase, z-score = -0.764
VTN [SID160718793]: total luciferase, z-score = 0.656
VTN [SID160718795]: total luciferase, z-score = -0.845
